Laboratory results published in publication PMC4213368, “Elucidation of a protein-protein interaction network involved in Corynebacterium glutamicum cell wall biosynthesis as determined by bacterial two-hybrid analysis” (Glycoconjugate Journal, 2014).
No constants are given. Whether binding was seen depends on the method and setting. For part of these data: A result given as binding can be weak or reduced; the word gives no strength.

Tests used:
Assay in all cases: two-hybrid; bacterial adenylate cyclase two-hybrid (BACTH) in E. coli cya BTH101; T25 and T18 fusions at N- or C-terminus co-expressed; co-transformants spotted on LB/X-gal, MacConkey/maltose and M63 plates with 0.5 mM IPTG, colour read after 48 h at 30 °C; 577 pairs screened; results as summarised in Table 2
[1] = biological target: T1, AftA (Corynebacterium glutamicum ATCC 13032) (UniProt Q8NTW4)
T1 sequence: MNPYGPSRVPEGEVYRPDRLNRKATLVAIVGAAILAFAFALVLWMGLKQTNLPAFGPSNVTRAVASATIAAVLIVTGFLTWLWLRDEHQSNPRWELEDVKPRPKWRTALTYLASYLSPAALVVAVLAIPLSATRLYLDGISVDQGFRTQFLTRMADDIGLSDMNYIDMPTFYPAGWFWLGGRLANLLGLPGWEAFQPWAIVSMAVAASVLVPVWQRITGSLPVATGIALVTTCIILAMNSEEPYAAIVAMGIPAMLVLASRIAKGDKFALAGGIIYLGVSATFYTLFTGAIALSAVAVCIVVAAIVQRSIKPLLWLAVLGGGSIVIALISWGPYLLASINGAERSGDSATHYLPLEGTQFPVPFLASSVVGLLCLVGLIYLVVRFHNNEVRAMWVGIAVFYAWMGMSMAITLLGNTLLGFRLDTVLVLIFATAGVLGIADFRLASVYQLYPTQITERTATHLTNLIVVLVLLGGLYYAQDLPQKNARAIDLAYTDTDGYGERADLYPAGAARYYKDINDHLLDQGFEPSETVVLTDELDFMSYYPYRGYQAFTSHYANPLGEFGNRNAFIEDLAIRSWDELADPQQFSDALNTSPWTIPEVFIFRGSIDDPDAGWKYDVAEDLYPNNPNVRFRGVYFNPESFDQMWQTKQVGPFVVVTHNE

[2] = biological target: T2, AftC (Corynebacterium glutamicum ATCC 13032) (UniProt Q8NPB7)
T2 sequence: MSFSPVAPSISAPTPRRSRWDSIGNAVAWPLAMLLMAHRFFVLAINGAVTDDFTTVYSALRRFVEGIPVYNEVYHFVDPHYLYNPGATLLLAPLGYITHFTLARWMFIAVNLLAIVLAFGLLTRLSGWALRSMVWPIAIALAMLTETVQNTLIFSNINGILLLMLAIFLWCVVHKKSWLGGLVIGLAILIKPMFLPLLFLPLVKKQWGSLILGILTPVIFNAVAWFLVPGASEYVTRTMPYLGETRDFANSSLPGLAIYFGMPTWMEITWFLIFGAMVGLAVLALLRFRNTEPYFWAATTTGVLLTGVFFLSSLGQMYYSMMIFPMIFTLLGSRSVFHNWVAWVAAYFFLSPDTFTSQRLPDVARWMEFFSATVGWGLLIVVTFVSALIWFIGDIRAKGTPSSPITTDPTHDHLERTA

[3] = biological target: T3, AftB (Corynebacterium glutamicum ATCC 13032) (UniProt Q8NLR0)
T3 sequence: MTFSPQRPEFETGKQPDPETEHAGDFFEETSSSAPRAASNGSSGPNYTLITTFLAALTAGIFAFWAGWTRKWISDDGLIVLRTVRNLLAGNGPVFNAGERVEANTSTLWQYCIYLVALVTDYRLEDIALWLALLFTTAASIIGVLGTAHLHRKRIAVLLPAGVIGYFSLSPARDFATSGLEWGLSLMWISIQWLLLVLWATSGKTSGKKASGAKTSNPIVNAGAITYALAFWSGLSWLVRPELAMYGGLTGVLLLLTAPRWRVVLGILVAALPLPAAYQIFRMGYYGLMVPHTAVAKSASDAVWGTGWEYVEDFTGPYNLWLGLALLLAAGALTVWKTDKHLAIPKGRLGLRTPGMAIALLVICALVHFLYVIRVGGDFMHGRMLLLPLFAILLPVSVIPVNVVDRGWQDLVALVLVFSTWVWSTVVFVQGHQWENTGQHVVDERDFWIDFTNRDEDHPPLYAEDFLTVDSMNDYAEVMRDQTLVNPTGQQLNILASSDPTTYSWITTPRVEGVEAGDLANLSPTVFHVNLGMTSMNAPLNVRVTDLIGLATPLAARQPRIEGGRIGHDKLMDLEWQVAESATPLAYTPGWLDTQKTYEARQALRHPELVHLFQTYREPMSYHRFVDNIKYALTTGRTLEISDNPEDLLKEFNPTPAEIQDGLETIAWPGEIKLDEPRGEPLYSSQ

[4] = biological target: DprE2 (Corynebacterium glutamicum ATCC 13032)
[5] = biological target: AftD (Corynebacterium glutamicum ATCC 13032)
[6] = biological target: DprE1 (Corynebacterium glutamicum ATCC 13032)
[7] = biological target: Emb (Corynebacterium glutamicum ATCC 13032)

UbiA (Corynebacterium glutamicum ATCC 13032) (enzyme)
binding [1]: binds
binding [2]: binds
binding [3]: binds

GlfT2 (Corynebacterium glutamicum ATCC 13032) (enzyme)
binding [1]: no binding
binding [2]: no binding
binding [3]: no binding

GlfT1 (Corynebacterium glutamicum ATCC 13032) (enzyme)
binding [1]: no binding
binding [2]: no binding
binding [3]: binds

WbbL (Corynebacterium glutamicum ATCC 13032) (enzyme)
binding [1]: no binding
binding [2]: no binding
binding [3]: no binding

WecA (Corynebacterium glutamicum ATCC 13032) (enzyme)
binding [1]: no binding
binding [2]: binds
binding [3]: binds

B1: AftA (enzyme, Corynebacterium glutamicum ATCC 13032, UniProt Q8NTW4 1-661, looked up)
chain: T1 sequence
notes: AftA, arabinofuranosyltransferase, transmembrane, Corynebacterium glutamicum ATCC 13032; gene amplified from genomic DNA; One molecule for all four fusion forms; also called arabinofuranosyltransferase AftA; AftA-T25^N; source: E. coli BTH101, bacterial two-hybrid (BACTH) fusion; not shown: T25 or T18 fragment of Bordetella pertussis adenylate cyclase, N-terminal or C-terminal (each tested), kept
binding [4]: binds
binding [5]: no binding
binding [6]: no binding
binding [7]: binds

B2: AftB (enzyme, Corynebacterium glutamicum ATCC 13032, UniProt Q8NLR0 1-686, looked up)
chain: T3 sequence
notes: AftB, arabinofuranosyltransferase, transmembrane, Corynebacterium glutamicum ATCC 13032; gene amplified from genomic DNA; One molecule for all four fusion forms; also called arabinofuranosyltransferase AftB; AftB-T25^N; source: E. coli BTH101, bacterial two-hybrid (BACTH) fusion; not shown: T25 or T18 fragment of Bordetella pertussis adenylate cyclase, N-terminal or C-terminal (each tested), kept
binding [4]: binds
binding [5]: no binding
binding [6]: no binding
binding [7]: binds

B3: AftC (enzyme, Corynebacterium glutamicum ATCC 13032, UniProt Q8NPB7 1-418, looked up)
chain: T2 sequence
notes: AftC, arabinofuranosyltransferase, transmembrane, Corynebacterium glutamicum ATCC 13032; gene amplified from genomic DNA; One molecule for all four fusion forms; also called arabinofuranosyltransferase AftC; AftC-T25^C; source: E. coli BTH101, bacterial two-hybrid (BACTH) fusion; not shown: T25 or T18 fragment of Bordetella pertussis adenylate cyclase, N-terminal or C-terminal (each tested), kept
binding [4]: binds
binding [5]: no binding
binding [6]: no binding
binding [7]: no binding
